Assay results reported in article PMC7728079.
No constants are given. Whether binding was seen depends on the method and setting. In cells and extracts the contact can be indirect. Binding calls can cover weak binding; strength is not graded here.

B1: Dpm1 (protein, UniProt P14020 1-267)
chain: MSIEYSVIVPAYHEKLNIKPLTTRLFAGMSPEMAKKTELIFVDDNSQDGSVEEVDALAHQGYNVRIIVRTNERGLSSAVLKGFYEAKGQYLVCMDADLQHPPETVPKLFESLHDHAFTLGTRYAPGVGIDKDWPMYRRVISSTARMMARPLTIASDPMSGFFGLQKKYLENCNPRDINSQGFKIALELLAKLPLPRDPRVAIGEVPFTFGVRTEGESKLSGKVIIQYLQQLKELYVFKFGANNLILFITFWSILFFYVCYQLYHLVF
B2: Spt14 (protein, UniProt P32363 1-452)
chain: MGFNIAMLCDFFYPQLGGVEFHIYHLSQKLIDLGHSVVIITHAYKDRVGVRHLTNGLKVYHVPFFVIFRETTFPTVFSTFPIIRNILLREQIQIVHSHGSASTFAHEGILHANTMGLRTVFTDHSLYGFNNLTSIWVNKLLTFTLTNIDRVICVSNTCKENMIVRTELSPDIISVIPNAVVSEDFKPRDPTGGTKRKQSRDKIVIVVIGRLFPNKGSDLLTRIIPKVCSSHEDVEFIVAGDGPKFIDFQQMIESHRLQKRVQLLGSVPHEKVRDVLCQGDIYLHASLTEAFGTILVEAASCNLLIVTTQVGGIPEVLPNEMTVYAEQTSVSDLVQATNKAINIIRSKALDTSSFHDSVSKMYDWMDVAKRTVEIYTNISSTSSADDKDWMKMVANLYKRDGIWAKHLYLLCGIVEYMLFFLLEWLYPRDEIDLAPKWPKKTVSNETKEARET

Legend:
[1] = target: Yil102c-A tagged with the myc epitope at the C-terminus (S. cerevisiae); experiment: co-IP; myc-tagged Yil102c-A trapped on Myc-Trap Agarose beads from yeast cell-free extract (500 ug protein), 4 °C, 24 h; Dpm1 and Spt14 detected by immunoblot; expression induced with galactose (C-terminal tag) or 0.2 mM CuSO4 (N-terminal tag)
[2] = target: Yil102c-A tagged with the myc epitope at the N-terminus (S. cerevisiae); experiment: as above

Row | Binder | binding [1] | binding [2]
1 | B1 | binds | 
2 | B2 | no binding | binds
